T1: B. mori chitin deacetylase 8 (recombinant His-tagged BmCDA8 from pCold-TF) (B. mori) (UniProt H9JW43)
T1 sequence: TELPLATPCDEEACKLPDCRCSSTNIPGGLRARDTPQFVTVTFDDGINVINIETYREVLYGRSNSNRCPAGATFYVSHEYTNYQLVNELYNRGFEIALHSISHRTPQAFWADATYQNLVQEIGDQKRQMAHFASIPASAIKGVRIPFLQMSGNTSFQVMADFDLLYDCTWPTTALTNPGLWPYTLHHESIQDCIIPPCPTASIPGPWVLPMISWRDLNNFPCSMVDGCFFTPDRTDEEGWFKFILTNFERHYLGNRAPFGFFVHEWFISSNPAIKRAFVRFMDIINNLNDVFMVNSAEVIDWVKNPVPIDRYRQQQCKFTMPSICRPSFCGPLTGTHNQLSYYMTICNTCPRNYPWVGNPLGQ

By UniProt entry, the sequences of proteins in these tests, tags left out. Where a name states a change or a piece, a line headed by the entry shows the natural chain unless it says otherwise.
UniProt R0M6A3: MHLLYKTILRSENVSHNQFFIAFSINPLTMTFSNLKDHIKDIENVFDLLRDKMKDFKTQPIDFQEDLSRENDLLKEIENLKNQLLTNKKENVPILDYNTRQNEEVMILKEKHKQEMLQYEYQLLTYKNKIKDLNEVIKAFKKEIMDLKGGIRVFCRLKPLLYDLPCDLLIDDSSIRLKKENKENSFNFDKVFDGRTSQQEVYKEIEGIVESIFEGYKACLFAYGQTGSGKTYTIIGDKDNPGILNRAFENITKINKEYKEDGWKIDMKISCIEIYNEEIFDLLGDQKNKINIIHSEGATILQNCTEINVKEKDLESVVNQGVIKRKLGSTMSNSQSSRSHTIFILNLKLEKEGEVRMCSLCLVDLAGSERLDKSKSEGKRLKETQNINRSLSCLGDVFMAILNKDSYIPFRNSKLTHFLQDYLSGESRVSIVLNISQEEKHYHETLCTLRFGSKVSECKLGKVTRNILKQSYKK
UniProt R0M2W3: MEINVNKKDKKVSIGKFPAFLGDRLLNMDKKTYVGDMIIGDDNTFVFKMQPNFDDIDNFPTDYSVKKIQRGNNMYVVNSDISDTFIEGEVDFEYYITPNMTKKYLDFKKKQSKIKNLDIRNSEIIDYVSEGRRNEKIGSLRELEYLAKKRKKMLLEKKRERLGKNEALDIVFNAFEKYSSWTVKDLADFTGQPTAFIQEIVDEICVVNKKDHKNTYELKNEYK

B1: Uncharacterized protein R0MNI3 (protein, UniProt R0MNI3 1-395)
chain: MWAEKSVFEDTVINLKLNEPKSRVIYVKERFKQLVGKRLYKFMNRKCCKEAIMRLEKNEDFELLYFSSYFECYESFRIFEKNSRFFGLSKNPRDEKNTNKTIMNPKMFTQRVDKMIEKDLEKLSDNPEKSMPYKFYLNFLCKRKSVLDKNSAQKTFKLLVKKCFDDLKSKMLKKEIFFHIGGKYNVNYYFKELYNQAGKAVKEFQEKYEIADLKYKDVIFQKICESFHENLFNLQANIIDDLFKTDFIEEQVSKIFGIDVKFPDDISNVENIIFDCLNMLTYLSDFYCISGDSIYNTFNYPLIFNTEHKCKIVSCLKIQFDTQFSNDFVKIEAFNEKGGKVEFNRNVHYALKFNSNWEIYCTLEVLNKLNIKKIKIAIKRKKLCKTIELNKYLSN
B2: Uncharacterized protein R0KT40 (protein, UniProt R0KT40 1-140)
chain: MLSKIEEKLFNQEEGESEVSYFSFRIREELENLHFYINKLRRSIQIYTKPQNLNAEINSLLSNILKDIQTFKRTEESKDKENFMTKAKICHKKIIDVFWKYRLYLIDKKRNIKLIIKTFEKVSTCKVKIDAYLEKLISLS
B3: Vacuolar proton pump subunit D (protein, UniProt R0KZ58 1-214)
chain: MFMPPHKMADQRLQVFPTRMNLKIVDQKEKSAEKGWMLLKRKSDALKQRYKAISKEFKDKQSAITKSLNDAFFKLSEAEFLGGNILMYIHECQKQPVYVDVSTELVSGVSLTSFKMDRSSIKPIFWLDRSGPILNECRVMFLDVLDNLIELCALKNSFIVLEKILMSTNRRVNALEFSVIPKLQNTISYINAELDEQDREDFFRLKKIQNLKKK
B4: Uncharacterized protein R0KN04 (protein, UniProt R0KN04 1-133)
chain: MNKLYLDINVPDLENFDFEQPLTISMKEELVIYNLFVERFLWLSYMKDSFFKSSIESIAEKLKIRNRSCSFAKHYNISLMKGCSDIFYFFCDNNINIVNLHEMCLIKLQNGRFYYVQQDLSSNRSKYEFLFDY
B5: Tail completion protein S (protein, UniProt R0MFQ0 1-71)
chain: MSADIAKKLRQRQQQRIKSQKAPEGSPFAPRKRPPVRAKQGRIKREMFAKLRTNRYMKASGGDSALVVEFA
B6: Uncharacterized protein R0MF04 (protein, UniProt R0MF04 1-332)
chain: MIQKKNSKISYVYTHKMQVLMTDQNNINFEAVQFTHKMVHLKSVKVYFYLILINHFLFKNRIHSAESLDYSSNETSMGCLSLNEEHKELFNNEQEKLSIEAQLQKNSIKLEKLKVHESINSSPATNESENIPKDFIALQDLIFKTSMRLNYLLKKTLPTLNKDLDEITAILFKIREKIIKMSKKSQTTNISLIGKIIQFFRKKPATQELPFLEIIRMYYEERITVYVCIYLRKHNMKDKSEKLHMKFNYFGFELYKMKVSRDFQDLDKIHGEFIESEIHTNAEKIFKEKERLLISIGRYKKQANLVLSIFTKFNTLTAEEFKADEEAKRYLM
B7: Uncharacterized protein R0KWK5 (protein, UniProt R0KWK5 1-187)
chain: MLYQIIYWINMCKSISVTIDSPISNYQEKDVHSSHVYANCISTYTGKDSEFSSESEGSEEQPSKDSNLKDSSLKDCYKPNNSKIICVDYPEVNAIYEKRLCYDIDSYYCTLRETEEQDKTSTTFCAKVYKSPCYFLFFLVVLCALIILSAYGVIYRKYWVFFIMFFICIVGLGAWAIKKSIERIPDD
B8: Uncharacterized protein R0MH05 (protein, UniProt R0MH05 1-162)
chain: MKFLEIKQILRTNEILKTIQEQYPIILDLEVYSCKNSKIYKMYKKTPKPLRYLLETLQRVYPDYSFIGEDWSNFKKLDYQNVANELIYSFLTFYKVKEKVDELVQFLGLIIDKTVFIDGCEIFSYTSREGPFEKDNWHFCFLFYSRSNKRVLFLSVRNTEIV
B9: DNA-directed RNA polymerase I subunit RPA12 (protein, UniProt R0MJ59 1-99)
chain: MFCACGTLVNPKANSNVLKCGRCENPLDVNRMQEIQMSKKIEQKVDLEIKEVKGAKIKYKCTNCGAEEMMYNTAQLRSADEGQTVFYSCKCGYKQTVQS
B10: Target SNARE coiled-coil region (protein, UniProt R0M916 1-91)
chain: MTQEDSEEEAKIFTTRVKTLKHIAIDLSHAINAQNDKLNGLEPGFNQTITNLFKNIKNMKENDPKRFRAWVYFLGGTMCLGFLFFVLFILT
B11: CDT1 geminin-binding domain-containing protein (protein, UniProt R0KLY5 1-445)
chain: MKTKNLKDYLNKNKKKVKVIEDSRARESICKTIEEIVFSDEILTSDIMSSDLLSEVDCKIKKSKKESKYIESKESESIGSGAIEVTSSIESNPIEVVPIECKPIENKHLECKPIEVTTPIYTTPIEETTPIEVSNLDSRINKIKQFTNLNFNLDLNKLDTYLILPKPLLRLLKIFKSLLTIQNYNSIRKLTSIFIKVKGSIERTLRTRIEEEDIKKIYYLLGDKIEIKNLKIEDKGEMVKTFTFKIKCTGEEMEKRMREWCIEEKEKEVPCREWDNEGGEECGEDVKEMDGKEMNGKDKEVDGNNPLSTSNPPSIDNPISPISNPMPPSNLTTPSSVITPLLTPSTKALNKTNLILERIKEKELKRKQDFIKKIQKKNEERDLIKRILILFKKEGKQALKMKDVIKILEIFEGERQIKRIVKENPEEFEIREISEEKYLIYKKVI

No constants are given. Whether binding was seen depends on the method and setting. Binding seen in cells or lysates may run through a third protein. These calls come from enrichment with a bait or labelling near it, and not all partners need be listed. Where a sequence is shown, tags or fusion partners need not be part of it.

The assay deals with T1, B. mori chitin deacetylase 8 (recombinant His-tagged BmCDA8 from pCold-TF) (B. mori). Briefly: affinity purification with mass spectrometry; His-tagged recombinant BmCDA8 (pCold-TF) as bait incubated with total proteins extracted from N. bombycis; Dynabeads His-Tag Isolation & Pulldown kit; SDS-PAGE, silver staining, mass spectrometry of the pulled-down proteins; control pCold-TF empty plasmid; only the target purified.
Take Kinesin-2 (from UniProt R0M6A3): the binding entry was “binds”. The value for “General transcription factor IIF subunit 2 (from UniProt R0M2W3)” was “binds”; that for B1 was “binds”; that for B2 was “binds”. For the molecule B3, the binding entry is “binds”. The value for B4 was “binds”. The value for B5 was “binds”; that for B6 was “binds”; that for B7 was “binds”.

As to B8, the binding entry is recorded as “binds”.

As for B9, the binding entry is listed as “binds”. Take B10: the binding result was “binds”.

With B11, the binding result is “binds”.

Values taken from paper PMC12379596.
